Experiments:
Assay type in all cases: cell-based
hPAAF = assay: EdU cell proliferation assay, hPAAF; conditions: Homo sapiens, 5% FBS, N = 6, FIG. 1f, read-out: hPAAF IC50 (nM), inhibition of proliferation
Method: (§1) Alternatively, rather than using BrdU, EdU (5-ethynyl-2′-deoxyuridine) can be used. Cells were first pre-incubated with different concentrations of the CDK inhibitor for 30 minutes, and then 5% FBS was added to stimulate cell proliferation. Cells were maintained for 24 h before the proliferation rate was evaluated using EDU Click-iT EdU Alexa Fluor® 647 HCS Assay (Thermofisher Scientific, USA). EdU was added to the medium 16 h before the quantification of EdU incorporation. Proliferation was quantified by scanning the 96-well plates using automated high content imaging platform equipped with appropriate fluorescence microscopic filters for DAPI (4′,6-Diamidino-2-Phenylindole) or Hoechst stain and Cyanine5 dyes as part of the Click-iT assay. Proliferating EdU positive cells detected at Cyanine5 were quantified and normalized to total cell number per well where the total cell number per cell was identified by DAPI or Hoechst signal. The % effect was then calculated:
(§2) The average (avg) amount (amt) of proliferating cells per concentration of CDK inhibitor with FBS present.
(§3) The minimum amount of proliferation (min amt of prolif'n) is based on cell numbers in the wells where FBS is not added and no CDK inhibitor is present.
(§4) The maximum amount of proliferation (max amt of prolif'n) is based on cell numbers in the wells where FBS is added and no CDK inhibitor is present. […]

rPASMC = assay: EdU cell proliferation assay, rPASMC; conditions: Rattus norvegicus, 5% FBS, N = 6, FIG. 1g, read-out: rPASMC IC50 (nM), inhibition of proliferation
Method: as §1, §2, §3, §4

phospho-Rb (Ser807/811) = assay: In-cell western analysis of Rb phosphorylation in human PASMCs; conditions: PASMC, 10% FBS, N = 6, FIG. 2c, read-out: Average IC50 (nM), inhibition of phosphorylation of Rb in hPASMCs
Method: In-cell western analysis. Primary PASMCs from normal human subjects were cultured and serum-starved as described above. Cells were first pre-incubated with different concentrations of palbociclib for 60 minutes, and then either 5% FBS or 10% FBS or 30 ng/ml PDGF-BB was added to stimulate cell proliferation and Rb phosphorylation. The effect of Palbociclib on Rb phosphorylation was evaluated 24 h later, using in-cell western assay according to the manufacturer's instructions (Li-Cor Biosciences, Lincoln, Nebr., USA). Phosphorylated Rb was measured using a rabbit monoclonal antibody anti-phospho-Rb (Ser807/811) (Cell Signaling Technology, Inc., Danvers, Mass., USA), followed by detection with IRDye 800CW infrared fluorescent dye-labeled goat anti-rabbit secondary antibody. Actin levels were measured using mouse anti-actin monoclonal antibodies (pan Ab-5) (Fisher Scientific Pittsburgh, Pa., USA; Sigma Aldrich, St. Louis, Mo., USA), and followed by detection with IRDye 680RD-labeled goat anti-mouse secondary antibody. See FIG. 2a where 5% FBS was used, FIG. 2b where PDGF-BB was used, and FIG. 2c where 10% FBS was used.

IC50 (phospho-Rb (Ser807/811)): 5.65 nM
SMILES: CCc1cnn2c(NCc3ccc[n+]([O-])c3)cc(N3CCCC[C@H]3CCO)nc12 [Dinaciclib, 2-[(2S)-1-[3-ethyl-7-[(1-oxidopyridin-1-ium-3-yl)methylamino]pyrazolo[1,5-a]pyrimidin-5-yl]piperidin-2-yl]ethanol]
IC50 (hPAAF): 0.2 nM
IC50 (rPASMC): 1.1 nM
